Measurements: patent US20160145222A1, “Methods for Controlling Pests in Soybean” (BASF SE, priority 2013, published 2016)
Some of these results come from one statement about several compounds together.

Test system: Nezara viridula
Experiment: Green Soldier Stink Bug (Nezara viridula) spray test on soybean pods
Format: in vivo
Conditions: sprayed, late 3rd instar N. viridula, after 5 days

C#CCNC(=O)c1ccc(C2=NSC(c3cc(Br)cc(C(F)(F)F)c3)(C(F)(F)F)C2)cc1Cl (racemic) [Compound 2-65]
mortality in comparison with untreated controls (100 ppm): over 75%
mortality in comparison with untreated controls (500 ppm): over 75%

CCS(=O)(=O)CC(=O)NCc1ccc(C2=NSC(c3cc(F)cc(C(F)(F)F)c3)(C(F)(F)F)C2)cc1Cl (stereo not shown) [Compound 3-172]
mortality in comparison with untreated controls (500 ppm): over 75%

O=C(NCc1ccc(C2=NSC(c3cc(Cl)c(F)c(Cl)c3)(C(F)(F)F)C2)cc1Cl)C1CCCO1 (stereo not shown) [Compound 3-114]
mortality in comparison with untreated controls (500 ppm): over 75%

O=C(NCc1ccc(C2=NSC(c3cc(Cl)c(F)c(Cl)c3)(C(F)(F)F)C2)cc1Cl)C1CSC1 (stereo not shown) [Compound 3-156]
mortality in comparison with untreated controls (100 ppm): over 75%
mortality in comparison with untreated controls (500 ppm): over 75%

CC(=O)NCc1ccc(C2=NSC(c3cc(Cl)c(F)c(Cl)c3)(C(F)(F)F)C2)cc1Cl (stereo not shown) [Compound 3-14]
mortality in comparison with untreated controls (500 ppm): over 75%

CCSCC(=O)N(CC)Cc1ccc(C2=NSC(c3cc(Cl)cc(Cl)c3)(C(F)(F)F)C2)cc1Cl (stereo not shown) [Compound 3-8]
mortality in comparison with untreated controls (500 ppm): over 75%

O=C(NCc1ccc(C2=NSC(c3cc(Cl)c(F)c(Cl)c3)(C(F)(F)F)C2)cc1Cl)C1CC1 (stereo not shown) [Compound 3-17]
mortality in comparison with untreated controls (100 ppm): over 75%
mortality in comparison with untreated controls (500 ppm): over 75%

C#CCNC(=O)NN=Cc1ccc(C2=NSC(c3cc(Cl)c(Cl)c(Cl)c3)(C(F)(F)F)C2)cc1OC (stereo not shown) [Compound 1-8]
mortality in comparison with untreated controls (500 ppm): over 75%

C#CCNC(=O)c1ccc(C2=NSC(c3cc(Cl)cc(Br)c3)(C(F)(F)F)C2)cc1Cl (racemic) [Compound 2-71]
mortality in comparison with untreated controls (500 ppm): over 75%

CNC(=O)NN=Cc1ccc(C2=NSC(c3cc(Cl)c(Cl)c(Cl)c3)(C(F)(F)F)C2)cc1OC (stereo not shown) [Compound 1-7]
mortality in comparison with untreated controls (100 ppm): over 75%
mortality in comparison with untreated controls (500 ppm): over 75%

CCCC(=O)NCc1ccc(C2=NSC(c3cc(Br)cc(C(F)(F)F)c3)(C(F)(F)F)C2)cc1Cl (stereo not shown) [Compound 3-100]
mortality in comparison with untreated controls (100 ppm): over 75%
mortality in comparison with untreated controls (500 ppm): over 75%

Cc1cc(C2=NSC(c3cc(Cl)c(F)c(Cl)c3)(C(F)(F)F)C2)ccc1C(=O)NC1(C#N)CC1 (stereo not shown) [Compound 2-28]
mortality in comparison with untreated controls (100 ppm): over 75%
mortality in comparison with untreated controls (500 ppm): over 75%

C=CCNC(=O)CNC(=O)c1ccc(C2=NSC(c3cc(Cl)c(F)c(Cl)c3)(C(F)(F)F)C2)cc1Cl (stereo not shown) [Compound 2-90]
mortality in comparison with untreated controls (100 ppm): over 75%
mortality in comparison with untreated controls (500 ppm): over 75%

O=C(NCc1ccc(C2=NSC(c3cc(Cl)cc(Cl)c3)(C(F)(F)F)C2)cc1Cl)C1CC1 (stereo not shown) [Compound 3-3]
mortality in comparison with untreated controls (100 ppm): over 75%
mortality in comparison with untreated controls (500 ppm): over 75%

CCC(=O)NCc1ccc(C2=NSC(c3cc(Cl)c(F)c(Cl)c3)(C(F)(F)F)C2)cc1F (stereo not shown) [Compound 3-151]
mortality in comparison with untreated controls (100 ppm): over 75%
mortality in comparison with untreated controls (500 ppm): over 75%

Cc1cc(C2=NSC(c3cc(Cl)cc(Cl)c3)(C(F)(F)F)C2)ccc1C(=O)NCC(=O)NCC1(C#N)CC1 (stereo not shown) [Compound 2-89]
mortality in comparison with untreated controls (100 ppm): over 75%
mortality in comparison with untreated controls (500 ppm): over 75%

CCC(=O)NCc1ccc(C2=NSC(c3cc(Cl)c(F)c(Cl)c3)(C(F)(F)F)C2)cc1Cl (stereo not shown) [Compound 3-18]
mortality in comparison with untreated controls (100 ppm): over 75%
mortality in comparison with untreated controls (500 ppm): over 75%

CNC(=O)NN=Cc1ccc(C2=NSC(c3cc(Cl)cc(Cl)c3)(C(F)(F)F)C2)cc1Cl (stereo not shown) [Compound 1-3]
mortality in comparison with untreated controls (500 ppm): over 75%

CS(=O)(=O)CC(=O)NCc1ccc(C2=NSC(c3cc(F)cc(C(F)(F)F)c3)(C(F)(F)F)C2)cc1Cl (stereo not shown) [Compound 3-171]
mortality in comparison with untreated controls (100 ppm): over 75%
mortality in comparison with untreated controls (500 ppm): over 75%

CCN(Cc1ccc(C2=NSC(c3cc(Cl)cc(Cl)c3)(C(F)(F)F)C2)cc1Cl)C(=O)CC(F)(F)F (stereo not shown) [Compound 3-4]
mortality in comparison with untreated controls (100 ppm): over 75%
mortality in comparison with untreated controls (500 ppm): over 75%

CCSCC(=O)NCc1ccc(C2=NSC(c3cc(Cl)cc(Cl)c3)(C(F)(F)F)C2)cc1Cl (stereo not shown) [Compound 3-2]
mortality in comparison with untreated controls (100 ppm): over 75%
mortality in comparison with untreated controls (500 ppm): over 75%

N#CC1(NC(=O)c2ccc(C3=NSC(c4cc(Br)cc(C(F)(F)F)c4)(C(F)(F)F)C3)cc2Cl)CC1 (racemic) [Compound 2-63]
mortality in comparison with untreated controls (100 ppm): over 75%
mortality in comparison with untreated controls (500 ppm): over 75%

O=C(CC1CCOC1)NCc1ccc(C2=NSC(c3cc(Cl)c(F)c(Cl)c3)(C(F)(F)F)C2)cc1Cl (stereo not shown) [Compound 3-50]
mortality in comparison with untreated controls (500 ppm): over 75%

O=C(NCc1ccc(C2=NSC(c3cc(Cl)c(F)c(Cl)c3)(C(F)(F)F)C2)cc1F)C1CC1 (stereo not shown) [Compound 3-149]
mortality in comparison with untreated controls (100 ppm): over 75%
mortality in comparison with untreated controls (500 ppm): over 75%

CC1(C)CC1C(=O)NCc1ccc(C2=NSC(c3cc(Cl)c(F)c(Cl)c3)(C(F)(F)F)C2)cc1Cl (stereo not shown) [Compound 3-40]
mortality in comparison with untreated controls (500 ppm): over 75%

O=C(NCc1ccc(C2=NSC(c3cc(Cl)c(F)c(Cl)c3)(C(F)(F)F)C2)cc1Cl)C1CC1(F)F (stereo not shown) [Compound 3-22]
mortality in comparison with untreated controls (500 ppm): over 75%

CC=CC(=O)NCc1ccc(C2=NSC(c3cc(Cl)c(F)c(Cl)c3)(C(F)(F)F)C2)cc1Cl (stereo not shown) [Compound 3-44]
mortality in comparison with untreated controls (100 ppm): over 75%
mortality in comparison with untreated controls (500 ppm): over 75%

O=C(Cc1ncccn1)NCc1ccc(C2=NSC(c3cc(Cl)c(F)c(Cl)c3)(C(F)(F)F)C2)cc1Cl (stereo not shown) [Compound 3-139]
mortality in comparison with untreated controls (100 ppm): over 75%
mortality in comparison with untreated controls (500 ppm): over 75%

O=C(CCC(F)(F)F)NCc1ccc(C2=NSC(c3cc(Cl)c(F)c(Cl)c3)(C(F)(F)F)C2)cc1Cl (stereo not shown) [Compound 3-76]
mortality in comparison with untreated controls (500 ppm): over 75%

O=C(NCC1CC1(Cl)Cl)c1ccc(C2=NSC(c3cc(Cl)c(F)c(Cl)c3)(C(F)(F)F)C2)cc1Cl (stereo not shown) [Compound 2-37]
mortality in comparison with untreated controls (100 ppm): over 75%
mortality in comparison with untreated controls (500 ppm): over 75%

O=C(NCC(F)F)NN=Cc1ccc(C2=NSC(c3cc(Cl)c(F)c(Cl)c3)(C(F)(F)F)C2)cc1Cl (stereo not shown) [Compound 1-16]
mortality in comparison with untreated controls (100 ppm): over 75%
mortality in comparison with untreated controls (500 ppm): over 75%

CNC(=O)NN=Cc1ccc(C2=NSC(c3cc(Cl)c(F)c(Cl)c3)(C(F)(F)F)C2)cc1Cl (stereo not shown) [Compound 1-15]
mortality in comparison with untreated controls (100 ppm): over 75%
mortality in comparison with untreated controls (500 ppm): over 75%

CS(=O)(=O)CC(=O)NCc1ccc(C2=NSC(c3cc(Br)cc(C(F)(F)F)c3)(C(F)(F)F)C2)cc1Cl (stereo not shown) [Compound 3-96]
mortality in comparison with untreated controls (500 ppm): over 75%

CCN(Cc1ccc(C2=NSC(c3cc(Cl)cc(Cl)c3)(C(F)(F)F)C2)cc1C)C(=O)CS(C)(=O)=O (stereo not shown) [Compound 3-1]
mortality in comparison with untreated controls (500 ppm): over 75%

N#CC1(NC(=O)c2ccc(C3=NSC(c4cc(Br)c(F)c(Br)c4)(C(F)(F)F)C3)cc2Cl)CC1 (racemic) [Compound 2-83]
mortality in comparison with untreated controls (100 ppm): over 75%
mortality in comparison with untreated controls (500 ppm): over 75%

Cc1cc(C2=NSC(c3cc(Cl)cc(Cl)c3)(C(F)(F)F)C2)ccc1C(=O)NCCOCC1CC1 (stereo not shown) [Compound 2-45]
mortality in comparison with untreated controls (500 ppm): over 75%
